{"source": "patent US11858935B1", "about": "“Pyrrolo[2,3-c][1,7]naphthyridine-2-carboxylic acid compounds as CK2 inhibitors” (KING FAISAL UNIVERSITY, priority 2023, dated 2024)", "assay_type_in_all_cases": "cell-based", "key": {"[1]": {"test_system": "MIAPaCa-2 (pancreas)", "assay": "In vitro cytotoxic activity (MTT) assay, MIAPaCa-2", "details": "Homo sapiens, MIA PaCa-2; MIAPaCa-2 (pancreas) cells, exposed 96 hours; read-out: IC50, concentration eliciting 50% inhibition of cell proliferation", "method": "(§1) Compounds 1-16 were screened for their in vitro cytotoxic activity utilizing a 3-(4,5-dimethyl-thiazol-2-yl)-2,5-diphenyltetrazolium bromide (MTT) assay against selected cancer human cell lines consisting of PC3 (prostate), HCT116 (colon), A375 (melanoma), H1299 (lung), MIAPaCa-2 (pancreas), HL60 (leukemia), MCF7 (breast), MDA-MB-231 (breast) (T. Mosmann, J. Immunol. Meth., 1983, 65, 55-63). The cells were cultured at 37° C. in RMPI1640 medium supplemented with 10% fetal bovine serum, 50 IU/mL penicillin, and 50 μg/mL streptomycin in a 5% CO2 incubator. All cells were sub-cultured 3 times/week by trypsinisation. Viable cells were seeded and allowed to adhere for 12 h before a test drug was added in 96-well plates at an initial density of 1.0×10^5 cells/mL. Tumor cell lines were separately exposed to various concentrations of the tested compounds followed by incubation at a temperature of 37° C. during 96 h inside a medium of fresh RMPI 1640. Cells were subsequently incubated at 37° C. using MTT at 0.5 mg/mL during 4 h. After removal of supernatant, formazan crystals were dissolved in isopropanol and the optical density was measured at 570 nm. CX-4945 was used as a positive control."}, "[2]": {"test_system": "A375 (melanoma)", "assay": "In vitro cytotoxic activity (MTT) assay, A375", "details": "Homo sapiens, A-375; A375 (melanoma) cells, exposed 96 hours; read-out: IC50, concentration eliciting 50% inhibition of cell proliferation", "method": "as §1"}, "[3]": {"test_system": "HL60 (leukemia)", "assay": "In vitro cytotoxic activity (MTT) assay, HL60", "details": "Homo sapiens, HL-60; HL60 (leukemia) cells, exposed 96 hours; read-out: IC50, concentration eliciting 50% inhibition of cell proliferation", "method": "as §1"}, "[4]": {"test_system": "HCT116 (colon)", "assay": "In vitro cytotoxic activity (MTT) assay, HCT116", "details": "Homo sapiens, HCT-116; HCT116 (colon) cells, exposed 96 hours; read-out: IC50, concentration eliciting 50% inhibition of cell proliferation", "method": "as §1"}, "[5]": {"test_system": "H1299 (lung)", "assay": "In vitro cytotoxic activity (MTT) assay, H1299", "details": "Homo sapiens, NCI-H1299; H1299 (lung) cells, exposed 96 hours; read-out: IC50, concentration eliciting 50% inhibition of cell proliferation", "method": "as §1"}, "[6]": {"test_system": "MCF7 (breast)", "assay": "In vitro cytotoxic activity (MTT) assay, MCF7", "details": "Homo sapiens; MCF7 (breast) cells, exposed 96 hours; read-out: IC50, concentration eliciting 50% inhibition of cell proliferation", "method": "as §1"}, "[7]": {"test_system": "MDA-MB-231 (breast)", "assay": "In vitro cytotoxic activity (MTT) assay, MDA-MB-231", "details": "Homo sapiens; MDA-MB-231 (breast) cells, exposed 96 hours; read-out: IC50, concentration eliciting 50% inhibition of cell proliferation", "method": "as §1"}, "[8]": {"test_system": "PC3 (prostate)", "assay": "In vitro cytotoxic activity (MTT) assay, PC3", "details": "Homo sapiens, Prostate cell; PC3 (prostate) cells, exposed 96 hours; read-out: IC50, concentration eliciting 50% inhibition of cell proliferation", "method": "as §1"}}, "data": [{"smiles": "O=C(O)c1ccc2c(c1)nc(Nc1cccc(Cl)c1)c1ccncc12", "note": "[CX-4945, reference compound]", "values": [{"measurement": "IC50", "setting": "[1]", "result": 1000, "unit": "nM"}, {"measurement": "IC50", "setting": "[2]", "result": 4.1, "unit": "µM"}, {"measurement": "IC50", "setting": "[3]", "result": 3.7, "unit": "µM"}, {"measurement": "IC50", "setting": "[4]", "result": 2300, "unit": "nM"}, {"measurement": "IC50", "setting": "[5]", "result": 2300, "unit": "nM"}, {"measurement": "IC50", "setting": "[6]", "result": 9.1, "unit": "µM"}, {"measurement": "IC50", "setting": "[7]", "result": 6.2, "unit": "µM"}, {"measurement": "IC50", "setting": "[8]", "result": 2000, "unit": "nM"}]}]}
